{
  "source": "patent US20190224153A1",
  "about": "“L-DOPA DERIVATIVES FOR THE TREATMENT OF NEUROLOGICAL DISEASES” (BERLIREM GMBH, priority 2016, published 2019)",
  "origin": "cited, not measured here",
  "conditions": "oral L-DOPA therapy; cited from earlier work",
  "data": [
    {"smiles": "N[C@@H](Cc1ccc(O)c(O)c1)C(=O)O", "note": "[L-DOPA, L-Dihydroxy-Phenylalanine]", "values": [
      {"measurement": "terminal half-life", "value": "about 30 mins"}
    ]}
  ]
}
